In patent US4148787A (Ferring AB, priority 1976, dated 1979):
For some of these results: No dose or concentration is given here for some results. [ ]: non-standard residue; d: D form. The star is where a group is joined. Tos = Cc1ccc(S(=O)(=O)*)cc1; Cbz = O=C(OCc1ccccc1)*; Bn = c1ccc(C*)cc1

Experiment: Relative antidiuretic activity in relation to DDAVP
Format: in vivo
Details: ratio of relative activities, DDAVP = 1.00
Source text: Thus, the strenghts in Table I are expressed as relative activity figures, data for DDAVP as a comparative compound being arbitrarily set at 1.00.

Q: With `NC(=O)CC[C@@H]1NC(=O)[C@H](Cc2ccccc2)NC(=O)[C@H](Cc2ccc(O)cc2)NC(=O)[C@@H](N)CSSC[C@@H](C(=O)N2CCC[C@H]2C(=O)N[C@@H](CCCN=C(N)N)C(=O)NCC(N)=O)NC(=O)[C@H](CC(N)=O)NC1=O` [Arg-vasopressin, arginine-vasopressin] as the compound, how does the “Antidiuresis / Blood pressure” value read?
A: The value was 0.00006.

Q: And the “Antidiuresis / Uterotonic” value?
A: Its value is 0.1.

Q: With `NC(=O)CC[C@@H]1NC(=O)[C@H](Cc2ccccc2)NC(=O)[C@H](Cc2ccc(O)cc2)NC(=O)CCSSC[C@@H](C(=O)N2CCC[C@H]2C(=O)N[C@H](CCCN=C(N)N)C(=O)NCC(N)=O)NC(=O)[C@H](CC(N)=O)NC1=O` [DDAVP, desamino-D-arginine^8 -vasopressin] as the compound, how does the “Antidiuresis / Blood pressure” value read?
A: The value was 1.00.

Q: What about the “Antidiuresis / Uterotonic” value of the same compound?
A: Its value is 1.00.

Experiment: general procedure: solution-phase peptide synthesis; p-nitrophenyl (ONp) active esters; azide fragment coupling (hydrazide with isoam)
Details: not given

Q: For Cbz-C(Bn)P[dR](Tos)G-NH2, which step yield is on record?
A: Its step yield is 88%.

Q: For “Mep(SBzl)--Tyr--Phe--Gln--Gln--Cys(SBzl)--Pro--D--Arg(Tos)--Gly--NH2”, which step yield is on record?
A: Its step yield is 53%.

Q: For “Cbz--Asn--Gln--Cys(SBzl)--Pro--D--Arg(Tos)--Gly--NH2”, which step yield is on record?
A: The step yield was 74%.

Q: With “Mep(SBzl)--Tyr--Phe--Asn--Gln--Cys(SBzl)--Pro--D--Arg(Tos)--Gly--NH2” as the compound, how does the step yield read?
A: The step yield was 35%.

Q: For Cbz-NC(Bn)P[dR](Tos)G-NH2, which step yield is on record?
A: The step yield was 72%.

Q: With “Cbz--Asn--Asn--Cys(Bzl)--Pro--D--Arg(Tos)--Gly.NH2” as the compound, how does the step yield read?
A: The step yield was 83%.

Q: Which step yield does the source give for “Mep(Bzl)--Phe--Asn--Asn--Cys(Bzl)--Pro--D--Arg(Tos)--Gly--NH2” here?
A: Its step yield is 79%.

Q: For Cbz-QQC(Bn)P[dR](Tos)G-NH2, which step yield is on record?
A: Its step yield is 87%.

Q: Which step yield does the source give for “Gbz--Gln--Cys(SBzl)--Pro--D--Arg(Tos)--Gly--NH2” here?
A: Its step yield is 63%.
